The whole screen tested about 330,000 compounds, of which about 610 (0.18%) were called active. The inconclusive results got no clear call from the source; some entries with a clear call stand among them for comparison. The call rests on the fitted dose curve. Potencies beside an inconclusive call are fits to weak or partial responses and may not hold up.
Assay: qHTS of Yeast-based Assay for SARS-CoV PLP; further: nearly all actives have a fitted effect of over 55% in size
Settings: S. cerevisiae expressing SARS-CoV PLpro; Potency: growth rescue; series mostly up to 32.9 µM
For `CN(C)c1cccc(C(=O)N/N=C/c2ccsc2)c1`, the Potency was active: 20 µM.
In the case of `O=[N+]([O-])c1ccc(OCc2cnc(Cl)s2)cc1`, the Potency is reported as “inactive”.
For `COc1ccccc1NC(=O)CN1C(=O)NC(C)(C)C1=O`, the Potency was inconclusive: 4.47 µM [activator, single point].
For `CCN(C(=O)CSc1nnc(Nc2cccc(C)c2C)s1)C1CCS(=O)(=O)C1` (stereo not given), the Potency was inconclusive: 22.4 µM [activator, partial curve, poor fit].
In the case of `CCCCNC(=O)C1CCN(C(=O)C2CCN(S(=O)(=O)c3ccc(C)cc3)CC2)CC1`, the Potency is reported as inconclusive: 12.6 µM [activator, single point].
With `Cc1ccc(S(=O)(=O)N2CCN(C(=O)CN3CCOCC3)C2)cc1` the Potency was inconclusive: 20 µM [activator, single point].
For `Cc1c(NC(=O)c2csc3c2CCCC3)c(=O)n(-c2ccccc2)n1C`, the Potency was “inactive”.
With `Fc1cccc(Cl)c1-c1nnc2ccc(N3CCOCC3)nn12` the Potency was “inactive”.
In the case of `Cc1ccc2nc(NC(=S)NC(=O)c3cccs3)sc2c1`, the Potency is reported as inconclusive: 4.47 µM [activator, single point].
With `Cc1cc(C)cc(OCC(=O)N(Cc2ccc(N(C)C)cc2)C2CCS(=O)(=O)C2)c1` (stereo not given) the Potency was “inactive”.
For `Oc1ccc(Cl)cc1C1=NNC(c2cccs2)C1` (stereo not given), the Potency was “inactive”.
For `Cc1ccc2nc(-c3ccc(NC(=O)CCN4C(=O)c5ccccc5C4=O)cc3)sc2c1`, the Potency was inconclusive: 2.82 µM [activator, partial curve].
In the case of `COc1ccc(C(=O)OC(C)C(=O)NCC2CCCCC2)cc1S(=O)(=O)N1CCOCC1` (stereo not given), the Potency is reported as “inactive”.
For `O=C(Nc1ccc(F)cc1)c1cccc2ccccc12`, the Potency was inconclusive: 4.47 µM [activator, single point].
For `CCNc1nc(C)c2cc(Br)c(=O)n(CC)c2n1`, the Potency was “inactive”.
In the case of `CCN(CC)C(=O)[C@H]1C[C@H](CC(=O)NCc2cccc(C(F)(F)F)c2)C(=O)N2CCc3c([nH]c4cc(CCC(=O)N(C)C)ccc34)[C@]12C`, the Potency is reported as inconclusive: 7.94 µM [activator, partial curve].
For `COc1ccccc1CNC(=O)C1CC(c2cccc([N+](=O)[O-])c2)=NO1` (stereo not given), the Potency was inconclusive: 20 µM [activator, single point].
For `O=C(COC(=O)/C=C/c1cccs1)Nc1nc(-c2ccccc2)cs1`, the Potency was active: 14.1 µM.
For `COc1ccc(CC(=O)N(c2ccccc2)c2nc(C)cs2)cc1`, the Potency was inconclusive: 0.316 µM [activator, full curve, poor fit].
For `O=c1c2ccccc2ncn1-c1ccccc1[N+](=O)[O-]`, the Potency was inconclusive: 2.82 µM [activator, single point].
For `Cc1cccc(OCC(=O)Nc2ccc(S(=O)(=O)N3CCN(C)CC3)cc2)c1`, the Potency was active: 3.55 µM.
With `CCOC(=O)c1oc2ccc3c(c2c1C)C(=O)CC1(CCN(C(=O)OCC)CC1)O3` the Potency was inconclusive: 2.82 µM [activator, single point].
With `O=C(NCCCO)c1nnc(Cc2c(F)cccc2Cl)o1` the Potency was inconclusive: 4.47 µM [activator, single point].
In the case of `Cc1ccc(OCCCC(=O)NNC(=O)c2ccccn2)cc1`, the Potency is reported as inconclusive: 20 µM [activator, single point].
In the case of `Cc1ccc(NC(=O)COC(=O)CCC(=O)c2ccc(C(C)(C)C)cc2)c([N+](=O)[O-])c1`, the Potency is reported as inconclusive: 11.2 µM [activator, partial curve, poor fit].
With `CCN(CC)S(=O)(=O)c1ccc(N/N=C/c2ccc(O)cc2O)nc1` the Potency was active: 5.01 µM.
For `Cc1ccc2c(c1)C1CC(C)(O2)N(c2cccc(C(=O)N3CCN(c4ccccn4)CC3)c2)C(=O)N1` (stereo not given), the Potency was “inactive”.
With `COCCNc1cc(C)nc2c3c(C)cc(C)nc3nn12` the Potency was inconclusive: 20 µM [activator, single point].
In the case of `COc1ccc(OCCOC(=O)CNC(=O)c2ccc(C)cc2)cc1`, the Potency is reported as inconclusive: 2.51 µM [activator, single point].
In the case of `CCc1ccc(-c2cc(C)no2)cc1S(=O)(=O)N1CCN(c2ccc(F)cc2)CC1`, the Potency is reported as “inactive”.
In the case of `O=C1CC2(CCN(C(=O)c3cccc([N+](=O)[O-])c3)CC2)Oc2ccccc21`, the Potency is reported as “inactive”.
With `CCOC(=O)c1sc(N(Cc2ccccc2)C(=O)CSc2nnc(C3CC3)n2N)nc1C` the Potency was inconclusive: 2.82 µM [activator, single point].
For `COc1ccc2oc(-c3ccccc3)c(C(=O)O)c2c1`, the Potency was “inactive”.
With `O=C(Nc1ccccn1)c1ccc([N+](=O)[O-])o1` the Potency was active: 10 µM.
With `CCOC(=O)c1cnc(-n2[nH]c(C)c(Cc3ccccc3)c2=O)[nH]c1=O` the Potency was inconclusive: 5.01 µM [activator, partial curve].
In the case of `CCNC(=O)/C(C#N)=C/c1c(N(Cc2ccccc2)Cc2ccccc2)nc2ccccn2c1=O`, the Potency is reported as inconclusive: 22.4 µM [activator, partial curve, poor fit].
For `C=CCn1c(-c2csc3ccccc23)n[nH]c1=S`, the Potency was inconclusive: 10 µM [activator, partial curve].
For `CS(=O)(=O)NCc1nnc2n1-c1ccc(Cl)cc1C(c1ccccc1)=NC2`, the Potency was inconclusive: 7.08 µM [activator, partial curve].
In the case of `Cc1cccc(-n2ncc3c(N4CCCC4)ncnc32)c1`, the Potency is reported as “inactive”.
For `CC(=O)c1ccc(NC(=O)CSc2nc(Nc3ccccc3)nc(N3CCOCC3)n2)cc1`, the Potency was inconclusive: 3.16 µM [activator, single point].
With `CCc1ccc(N2C(=O)c3ccc4c5c(ccc(c35)C2=O)CC4)cc1` the Potency was inconclusive: 4.47 µM [activator, single point].
In the case of `CCCCCCc1ccc(N2C[C@H](CCCCC)[C@@H](CC(=O)NCc3ccccc3)C2=O)cc1`, the Potency is reported as “inactive”.
With `Cc1cc(C(C2C(=O)CC(C)(C)CC2=O)C2C(=O)CC(C)(C)CC2=O)cc(C)c1OC(F)F` the Potency was inconclusive: 20 µM [activator, single point].
With `CC(C)c1ccc(/C=N/n2nnnc2Nc2ccccc2)cc1` the Potency was “inactive”.
With `C[C@H](NC(=O)[C@@H]1Cc2ccccc2CN1)C(=O)NC1CCCC1` the Potency was inconclusive: 20 µM [activator, single point].

Reference: PubChem BioAssay AID485353 (National Center for Advancing Translational Sciences (NCATS), 2010)
Potency means the concentration at half of the fitted maximal effect.
